Measured values taken from PubChem BioAssay AID504444 (National Center for Advancing Translational Sciences (NCATS), 2011).
The whole screen tested about 360,000 compounds, of which about 7,500 (2.1%) were called active. Inconclusive results, whose numbers are uncertain, are shown with a selection of clear calls. Calls come from the whole dose curve; as a rule, active = well fitted inhibition curve with a large enough effect; inconclusive = small, poorly fitted or top-dose-only effect, or effect the other way; inactive = flat fitted curve, though single readings scatter. A potency beside an inconclusive call is a rough fit, not a confirmed value.
% is set by controls: 0 for no effect and ±100 for the full control effect; potency is the fitted concentration of half-maximal effect.

Assay: Nrf2 qHTS screen for inhibitors; note: nearly all actives have a fitted effect of over 60% in size
Conditions: A549 ARE-Fluc reporter, luciferase luminescence, 18-24 h; activity change, negative = inhibition: at 46 µM (top of the series)
Method in brief: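 Reporter: ARE-Fluc in A549. Exposure: 18-24 h, 37 °C, 5% CO2, 5% FBS OPTI-MEM. Readouts: fluorescent cytotoxicity (CellTiter-Fluor), then luminescent Nrf2 signal after BugLite.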
With `CN(C)c1ccc(C(=O)Nc2nc3c(s2)CCCC3)cc1` the Potency was inconclusive: 1.64 µM [activator, full curve].
In the case of `CC(C)c1ccc2c(c1)C(N1CCN(C)CC1)Cc1cccnc1S2` (stereo not drawn), the Potency was inconclusive: 18.4 µM [activator, single point].
With `COc1ccc2[nH]c(=O)c3c(c2c1)OC(C)(C)C=C3` the Potency was active: 8.2 µM.
For `O=C(CCSCc1cnn(-c2ccccc2)c1-n1cccc1)NCc1ccc(Cl)cc1`, the Potency was inconclusive: 18.4 µM [falling, partial curve, poor fit].
For `Cc1ccc(NC(=O)Cn2cc(C(=O)c3cccs3)c3ccccc32)cc1C`, the Potency was inconclusive: 20.6 µM [falling, single point].
In the case of `CCCCCNC(=O)c1cccc(S(=O)(=O)N2CC3(C)CC2CC(C)(C)C3)c1` (stereo not drawn), the Potency was active: 25.9 µM.
For `CCN(CC)CCNC(=O)c1ccc(NC(=O)c2ccc(F)cc2F)cc1`, the Potency was inconclusive: 23.1 µM [activator, single point].
For `Cc1nnsc1C(=O)N/N=C/c1c(F)cccc1Cl`, the “activity change, negative = inhibition” value was inactive: 0.511%.
With `O=C(NC(=S)Nc1ccc(N2CCN(C(=O)c3ccccc3)CC2)cc1)c1cccs1` the Potency was inconclusive: 29.1 µM [falling, single point].
For `N/C(Cc1cccs1)=N\OC(=O)COc1ccccc1Cl`, the Potency was inconclusive: 14.6 µM [activator, partial curve, poor fit].
In the case of `Cc1cc(/C=C2\SC(=S)NC2=O)c(C)n1-c1ccccc1`, the Potency was inconclusive: 1.64 µM [activator, full curve].
For `COc1cccc(NC(=O)C2C3C=CC4(O3)C2C(=O)N(CCN2CCCCC2)C4C(=O)NC2CCCCC2C)c1` (stereo not drawn), the Potency was inconclusive: 6.51 µM [activator, partial curve, poor fit].
In the case of `O=C(CCn1cccn1)Nc1cccc(C(F)(F)F)c1`, the Potency was inconclusive: 32.6 µM [activator, single point].
For `Cc1oc2ncnc(N3CCOCC3)c2c1C(=O)NCc1ccccc1`, the Potency was inconclusive: 29.1 µM [activator, single point].
For `CCOCc1c(C(=O)N2CCN(CCOc3ccc(Cl)cc3)CC2)oc2ccccc12`, the Potency was inconclusive: 29.1 µM [falling, single point].
With `CC1CCCN(C(=O)N2c3ccccc3Sc3ccccc32)C1` (stereo not drawn) the Potency was active: 16.4 µM.
For `O=C(Nc1ccncc1)c1ccccc1F`, the Potency was inconclusive: 9.2 µM [falling, partial curve].
For `Nc1[nH]c(N=NC(=O)c2ccccc2O)c2ccccc12`, the Potency was inconclusive: 25.9 µM [activator, single point].
For `Cc1cccc(CSC(Nc2ccc(F)cc2)=C(C#N)C#N)c1`, the Potency was active: 18.4 µM.
For `O=C(Nc1ccc(S(=O)(=O)Nc2cnc3ccccc3n2)cc1)c1cccc(OC(F)F)c1`, the Potency was inconclusive: 29.1 µM [falling, single point].
For `O=C(NCc1ccco1)c1cc(-c2ccccc2)on1`, the Potency was inconclusive: 1.64 µM [activator, full curve].
In the case of `CCCC(=O)NNC(=O)CCC(=O)Nc1ccccc1Cl`, the Potency was inconclusive: 29.1 µM [falling, single point].
For `O=C(COc1ccccc1F)Nc1ccc2c(c1)OCCO2`, the Potency was inconclusive: 7.31 µM [activator, partial curve].
For `COC(=O)C1=C(C)NC(=O)/C1=C\c1cc(C)n(-c2cccc(C)c2)c1C`, the Potency was inconclusive: 9.2 µM [falling, partial curve].
For `COc1ccc(Nc2nc3c(S(=O)(=O)c4ccccc4)nnn3c3ccc(Cl)cc23)cc1OC`, the Potency was inconclusive: 2.91 µM [activator, full curve, poor fit].
For `COc1ccc(C(=O)C2CCCN(Cc3cnc(N4CCOCC4)s3)C2)c(OC)c1` (stereo not drawn), the Potency was active: 9.2 µM.
With `CCOC(=O)c1cccc(NC(=O)c2cc3c(=O)n(Cc4cccnc4)ccc3nc2C)c1` the Potency was inconclusive: 25.9 µM [falling, single point].
In the case of `COc1ccc(C(=O)Nc2nc3ccccc3s2)cc1OC`, the activity change, negative = inhibition was inconclusive: 36.5% [activator].
In the case of `CCCCOc1ccccc1NC(=O)Cn1c(-c2cncs2)nc2ccccc21`, the “activity change, negative = inhibition” value was inactive: 8.24%.
With `C/C(=N\NC(=O)c1ccc(O)cc1)c1cccc(NC(=O)c2ccc(Cl)cc2)c1` the “activity change, negative = inhibition” value was inactive: 17.3%.
With `O=[N+]([O-])c1cc(/C=N/O)ccc1N1CCCC1` the “activity change, negative = inhibition” value was inactive: 9.33%.
In the case of `CC(=O)N1c2ccc(S(=O)(=O)N3CCC(C(=O)NCc4ccccc4Cl)CC3)cc2CC1C` (stereo not drawn), the Potency was inconclusive: 2.06 µM [falling, partial curve, poor fit].
For `CC(=O)C1=C(C)OC(N)=C(C#N)C1c1cc2cccc(C)c2nc1Cl` (stereo not drawn), the “activity change, negative = inhibition” value was inactive: 6.99%.
For `O=C(Nc1nnc(S(=O)(=O)N2CCCC2)s1)c1ccc(F)cc1`, the Potency was inconclusive: 23.1 µM [activator, single point].
In the case of `O=C(O)c1ccccc1C1=Nc2ccc(O)cc2Oc2cc(O)ccc21`, the “activity change, negative = inhibition” value was inactive: 2.75%.
With `Cc1ccc(Cl)cc1N1CCN(C(=O)COc2ccc3c(c2)CCC3)CC1` the Potency was inconclusive: 29.1 µM [falling, single point].
With `Cc1ccc(-c2nc3ccccc3[nH]2)cc1N` the Potency was inconclusive: 0.58 µM [activator, full curve].
In the case of `CSc1ccc(-c2nc(CSCC(=O)NCCCN3CCCC3=O)c(C)o2)cc1`, the Potency was inconclusive: 32.6 µM [falling, partial curve, poor fit].
In the case of `Cc1cc(N)n(-c2ccc3ccccc3c2)n1`, the Potency was inconclusive: 10.3 µM [activator, single point].
In the case of `N#Cc1cnn2c1nc(N1CCOCC1)c1ccccc12`, the Potency was inconclusive: 7.31 µM [falling, partial curve, poor fit].
With `CCN(C[C@H]1N[C@@](Cc2ccccc2)(C(=O)OC)[C@H]2C(=O)N(Cc3ccccc3)C(=O)[C@@H]12)C(=O)Nc1ccc(F)cc1` the Potency was inconclusive: 29.1 µM [falling, single point].
With `O=C(CNC(=O)c1ccc(S(=O)(=O)N2CCCC2)cc1)N/N=C/c1ccc(Cl)cc1` the Potency was inconclusive: 23.1 µM [falling, single point].
For `COc1ccc(C(=O)NNC(=S)NC(=O)c2ccccc2)cc1`, the Potency was inconclusive: 20.6 µM [falling, partial curve].
For `CC(=O)Nc1nnc(CSCc2ccccc2F)s1`, the Potency was inconclusive: 29.1 µM [activator, single point].
With `CCCCCn1c(=O)[nH]c2cc(C(=O)N3CCN(c4ccccc4F)CC3)ccc2c1=O` the Potency was inconclusive: 25.9 µM [falling, partial curve, poor fit].
In the case of `Cc1ccc(-n2nc3ccc(NC(=O)/C=C/c4ccco4)cc3n2)cc1`, the Potency was inconclusive: 0.92 µM [activator, partial curve, poor fit].
With `CCOc1ccc(CN(C)C(C)C(=O)Nc2ccc([N+](=O)[O-])cc2Cl)cc1OC` (stereo not drawn) the “activity change, negative = inhibition” value was inactive: 2.26%.
For `CCOC(=O)c1ccccc1NC(=O)c1cccs1`, the “activity change, negative = inhibition” value was inactive: -22.8%.
With `Cc1ccc(CSc2nnc(-c3cccc(S(=O)(=O)N4CCOCC4)c3)n2C2CCCC2)cc1` the Potency was inconclusive: 18.4 µM [falling, partial curve].
With `O=C(COc1ccc(F)cc1)N(CC1=CCS(=O)(=O)C1)c1ccccc1` the Potency was inconclusive: 1.84 µM [falling, partial curve, poor fit].
With `COc1cc2c(cc1NC(=O)CSc1ccccc1)oc1ccccc12` the “activity change, negative = inhibition” value was inactive: 15.1%.
For `O=C(Oc1ccccc1)c1ccc2nsnc2c1`, the Potency was inconclusive: 20.6 µM [activator, partial curve].
With `CC(C)=CC(=O)Nc1nnc(C(C)C)s1` the Potency was inconclusive: 8.2 µM [activator, partial curve].
In the case of `Cc1ccc(Nc2ncnc(Cl)c2N)cc1`, the Potency was inconclusive: 6.51 µM [activator, partial curve, poor fit].
For `CCc1ccc(-c2ccc(C(=O)O)c(C)n2)cc1`, the Potency was inconclusive: 5.17 µM [activator, partial curve].
With `CCCCOC(=O)c1ccc(NC(=O)CSc2nc3c(c(=O)[nH]2)CCC3)cc1` the Potency was inconclusive: 16.4 µM [falling, single point].
In the case of `O=C(Nc1cccc(F)c1)c1cccnc1NCCc1ccccc1`, the Potency was active: 23.1 µM.
For `CC(=O)c1ccc(N2CCN(c3ncnc4onc(-c5ccc(Cl)cc5)c34)CC2)cc1`, the “activity change, negative = inhibition” value was inactive: -11%.
For `O=C(N/N=C/c1cc(Br)ccc1O)c1cccc(N2CCCC2=O)c1`, the Potency was inconclusive: 29.1 µM [falling, single point].
With `C=CCn1c(=O)c(C(=O)Nc2cccnc2)c(O)c2ccccc21` the Potency was inconclusive: 29.1 µM [falling, single point].
With `COc1ccc(-n2nc(C(=O)NCc3ccco3)c3c4ccccc4n(C)c3c2=O)cc1` the “activity change, negative = inhibition” value was inactive: 17.5%.
In the case of `NC(=O)CC1SC(N)=NC1=O` (stereo not drawn), the Potency was inconclusive: 23.1 µM [activator, single point].
In the case of `O=C(C1CC1)N1CCN(c2ccnc3cc(Cl)ccc23)CC1`, the Potency was inconclusive: 16.4 µM [falling, partial curve].
In the case of `COc1cc(F)c(S(=O)(=O)N2CCN(S(=O)(=O)c3cccc(N)c3)CC2)c(F)c1`, the “activity change, negative = inhibition” value was inactive: 0.0522%.
With `CN1CCC(=O)N(C(CSc2ccc(Br)cc2)c2ccccc2)CC1` (stereo not drawn) the Potency was inconclusive: 25.9 µM [activator, single point].
In the case of `COc1ccc(NC(=O)CSc2ccc3ccccc3c2)cc1S(=O)(=O)N1CCCCC1`, the Potency was active: 7.31 µM.
In the case of `COc1ccc(/C=C2\Oc3ccccc3C2=O)cc1`, the Potency was inconclusive: 20.6 µM [activator, single point].
For `Cc1cc(C)n(-c2nc3ccccc3c(=O)n2OCC(N)=O)n1`, the Potency was inconclusive: 20.6 µM [activator, partial curve, poor fit].
